Data taken from patent US8349851B2, “JAK kinase modulating compounds and methods of use thereof” (Ambit Biosciences Corp., priority 2009, dated 2013).
Counter-ions that a name gives are not always drawn.

These compounds were tested on 321 distinct kinases (assay: Kinase selectivity score from competition binding panel). Conditions: kinases with inhibition of 90% or greater divided by 321 distinct kinases tested.

SMILES | S Score (at 10 μM)
OC(c1ccc(F)cc1)c1nc(Nc2cc[nH]n2)c2ccccc2n1 (racemic) [Example 6, (R,S)-(4-(1H-pyrazol-3-ylamino)quinazolin-2-yl)(4-fluorophenyl)methanol] | A (A ≦ 0.3)
Fc1ccc(C(F)c2nc(Nc3cc[nH]n3)c3ccccc3n2)cc1 (racemic) [Example 7, (R,S)-2-(fluoro(4-fluorophenyl)methyl)-N-(1H-pyrazol-3-yl)quinazolin-4-amine] | A (A ≦ 0.3)
Cc1cc(Nc2nc(C(O)c3ccc(F)cc3)nc3ccccc23)n[nH]1 (racemic) [Example 12, (R,S)-(4-fluorophenyl)(4-(5-methyl-1H-pyrazol-3-ylamino)quinazolin-2-yl)methanol hydrochloride] | A (A ≦ 0.3)
COC(c1ccc(F)cc1)c1nc(Nc2cc(C)[nH]n2)c2ccccc2n1 (racemic) [Example 13, (R,S)-2-((4-fluorophenyl)(methoxy)methyl)-N-(5-methyl-1H-pyrazol-3-yl)quinazolin-4-amine] | A (A ≦ 0.3)
Cc1cc(Nc2nc(C(N)c3ccc(F)cc3)nc3ccccc23)n[nH]1 (racemic) [Example 14, (R,S)-2-(amino(4-fluorophenyl)methyl)-N-(5-methyl-1H-pyrazol-3-yl)quinazolin-4-amine] | A (A ≦ 0.3)
N#Cc1cc(Nc2nc(C(O)c3ccc(F)cc3)nc3ccccc23)n[nH]1 (racemic) [Example 15, (R,S)-3-(2-((4-fluorophenyl)(hydroxy)methyl)quinazolin-4-ylamino)-1H-pyrazole-5-carbonitrile] | A (A ≦ 0.3)
Cc1cc(Nc2nc(C(O)c3ccc(F)cc3)nc3cccc(F)c23)n[nH]1 (racemic) [Example 16, (R,S)-(5-fluoro-4-(5-methyl-1H-pyrazol-3-ylamino)quinazolin-2-yl)(4-fluorophenyl)methanol] | A (A ≦ 0.3)
Cc1cc(Nc2nc(C(O)c3ccc(F)cc3)nc3cc(C(F)(F)F)ccc23)n[nH]1 (racemic) [Example 18, (R,S)-(4-fluorophenyl)(4-(5-methyl-1H-pyrazol-3-ylamino)-7-(trifluoromethyl)quinazolin-2-yl)methanol] | A (A ≦ 0.3)
OC(c1ccc(F)cc1)c1nc(Nc2cc[nH]n2)c2ccc(I)cc2n1 (racemic) [Example 23, (R,S)-(4-(1H-pyrazol-3-ylamino)-7-iodoquinazolin-2-yl)(4-fluorophenyl)methanol] | A (A ≦ 0.3)
Cc1ccc2c(Nc3cc(C)[nH]n3)nc(C(O)c3ccc(F)cc3)nc2c1 (racemic) [Example 25, (R,S)-(4-fluorophenyl)(7-methyl-4-(5-methyl-1H-pyrazol-3-ylamino)quinazolin-2-yl)methanol] | A (A ≦ 0.3)
COc1ccc2c(Nc3cc[nH]n3)nc(C(O)c3ccc(F)cc3)nc2c1 (racemic) [Example 29, (R,S)-(4-(1H-pyrazol-3-ylamino)-7-methoxyquinazolin-2-yl)(4-fluorophenyl)methanol] | A (A ≦ 0.3)
COc1ccc2c(Nc3cc(C)[nH]n3)nc(C(O)c3ccc(F)cc3)nc2c1 (racemic) [Example 31, (R,S)-(4-fluorophenyl)(7-methoxy-4-(5-methyl-1H-pyrazol-3-ylamino)quinazolin-2-yl)methanol] | A (A ≦ 0.3)
Cc1cc(Nc2nc(C(O)c3ccc(F)cc3)nc3cc(O)ccc23)n[nH]1 (racemic) [Example 36, (R,S)-2-((4-fluorophenyl)(hydroxy)methyl)-4-(5-methyl-1H-pyrazol-3-ylamino)quinazolin-7-ol] | A (A ≦ 0.3)
Cc1cc(Nc2nc(C(O)c3ccc(F)cc3)nc3cc(OCCN4CCOCC4)ccc23)n[nH]1 (racemic) [Example 38, (R,S)-(4-fluorophenyl)(4-(5-methyl-1H-pyrazol-3-ylamino)-7-(2-morpholinoethoxy)quinazolin-2-yl)methanol] | C (0.4 < C ≦ 0.5)
Cc1cc(Nc2nc(C(O)c3ccc(F)cc3)nc3cc(OCCO)ccc23)n[nH]1 (racemic) [Example 39, (R,S)-2-(2-((4-fluorophenyl)(hydroxy)methyl)-4-(5-methyl-1H-pyrazol-3-ylamino)quinazolin-7-yloxy)ethanol] | B (0.3 < B ≦ 0.4)
Cc1cc(Nc2nc(C(O)c3ccc(F)cc3)nc3cc(OCCCO)ccc23)n[nH]1 (racemic) [Example 40, (R,S)-3-(2-((4-fluorophenyl)(hydroxy)methyl)-4-(5-methyl-1H-pyrazol-3-ylamino)quinazolin-7-yloxy)propan-1-ol] | B (0.3 < B ≦ 0.4)
COCCOc1ccc2c(Nc3cc(C)[nH]n3)nc(C(O)c3ccc(F)cc3)nc2c1 (racemic) [Example 42, (R,S)-(4-fluorophenyl)(7-(2-methoxyethoxy)-4-(5-methyl-1H-pyrazol-3-ylamino)quinazolin-2-yl)methanol] | D (D > 0.5)
Cc1cc(Nc2nc(C(O)c3ccc(F)cc3)nc3cc(OCC(=O)OC(C)(C)C)ccc23)n[nH]1 (racemic) [Example 43, (R,S)-tert-butyl 2-(2-((4-fluorophenyl)(hydroxy)methyl)-4-(5-methyl-1H-pyrazol-3-ylamino)quinazolin-7-yloxy)acetate] | C (0.4 < C ≦ 0.5)

SMILES | S Score (at 10 μM)
Cc1cc(Nc2nc(C(O)c3ccc(F)cc3)nc3cc(OCC(=O)O)ccc23)n[nH]1 (racemic) [Example 44, (R,S)-2-(2-((4-fluorophenyl)(hydroxy)methyl)-4-(5-methyl-1H-pyrazol-3-ylamino)quinazolin-7-yloxy)acetic acid] | A (A ≦ 0.3)
COC(=O)NC(c1ccc(F)cc1)c1nc(Nc2cc(C)[nH]n2)c2ccccc2n1 (racemic) [Example 45, (R,S)-methyl (4-fluorophenyl)(4-(5-methyl-4H-pyrazol-3-ylamino)quinazolin-2-yl) methylcarbamate] | A (A ≦ 0.3)
Cc1cc(Nc2nc(C(O)c3ccc(F)cc3)nc3c(C)cccc23)n[nH]1 (racemic) [Example 46, (R,S)-(4-fluorophenyl)(8-methyl-4-(5-methyl-1H-pyrazol-3-ylamino)quinazolin-2-yl)methanol] | A (A ≦ 0.3)
Cc1cc(Nc2nc(C(O)c3ccc(F)cc3)nc3cc(F)ccc23)n[nH]1 (racemic) [Example 47, (R,S)-(7-fluoro-4-(5-methyl-1H-pyrazol-3-ylamino)quinazolin-2-yl)(4-fluorophenyl)methanol] | A (A ≦ 0.3)
Cc1cc(Nc2nc(C(O)c3ccc(F)cc3)nc3cc(Cl)ccc23)n[nH]1 (racemic) [Example 52, (R,S) (7-chloro-4-(5-methyl-1H-pyrazol-3-ylamino)quinazolin-2-yl)(4-fluorophenyl)methanol] | A (A ≦ 0.3)
Cc1cc(Nc2nc(C(O)c3ccc(F)cc3)nc3ccc(F)cc23)n[nH]1 (racemic) [Example 54, (R,S)-(6-fluoro-4-(5-methyl-1H-pyrazol-3-ylamino)quinazolin-2-yl)(4-fluorophenyl)methanol] | A (A ≦ 0.3)
OC(c1ccc(F)cc1)c1nc(Nc2cc[nH]n2)c2cc(F)ccc2n1 (racemic) [Example 55, (R,S)-(4-(1H-pyrazol-3-ylamino)-6-fluoroquinazolin-2-yl)(4-fluorophenyl)methanol] | A (A ≦ 0.3)
OC(c1ccc(F)cc1)c1nc(Nc2cc[nH]n2)c2ccc(Br)cc2n1 (racemic) [Example 58, (R,S)-(4-(1H-pyrazol-3-ylamino)-7-bromoquinazolin-2-yl)(4-fluorophenyl)methanol] | A (A ≦ 0.3)
Cc1cc(Nc2nc(C(O)c3ccc(F)cc3)nc3c(F)cccc23)n[nH]1 (racemic) [Example 61, (R,S)-(8-fluoro-4-(5-methyl-1H-pyrazol-3-ylamino)quinazolin-2-yl)(4-fluorophenyl)methanol] | A (A ≦ 0.3)
COc1ccccc1C(O)c1nc(Nc2cc(C)[nH]n2)c2ccccc2n1 (racemic) [Example 63, (R,S)-(2-methoxyphenyl)(4-(5-methyl-1H-pyrazol-3-ylamino)quinazolin-2-yl)methanol] | A (A ≦ 0.3)
Cc1cc(Nc2nc(C(O)c3ccc(F)c(F)c3)nc3ccccc23)n[nH]1 (racemic) [Example 66, (R,S)-(3,4-difluorophenyl)(4-(5-methyl-1H-pyrazol-3-ylamino)quinazolin-2-yl)methanol] | A (A ≦ 0.3)
[2H]C(O)(c1ccc(F)cc1)c1nc(Nc2cc(C)[nH]n2)c2ccccc2n1 (racemic) [Example 72, (R,S) (4-fluorophenyl)(4-(5-methyl-1H-pyrazol-3-ylamino)quinazolin-2-yl)methanol-1-d] | A (A ≦ 0.3)
Cc1cc(Nc2nc(C(=O)c3cccc(F)c3)nc3ccccc23)n[nH]1 [Example 1, (3-fluorophenyl)(4-(5-methyl-1H-pyrazol-3-ylamino)quinazolin-2-yl)methanone] | A (A ≦ 0.3)
O=C(c1cccc(F)c1)c1nc(Nc2cc[nH]n2)c2ccccc2n1 [Example 2, (4-(1H-pyrazol-3-ylamino)quinazolin-2-yl)(3-fluorophenyl)methanone] | A (A ≦ 0.3)
Cc1cc(Nc2nc(C(=O)c3ccc(F)cc3)nc3ccccc23)n[nH]1 [Example 3, (4-fluorophenyl)(4-(5-methyl-1H-pyrazol-3-ylamino)quinazolin-2-yl)methanone] | A (A ≦ 0.3)
O=C(c1ccc(F)cc1)c1nc(Nc2cc[nH]n2)c2ccccc2n1 [Example 4, (4-(1H-pyrazol-3-ylamino)quinazolin-2-yl)(4-fluorophenyl)methanone] | A (A ≦ 0.3)
COc1ccccc1C(=O)c1nc(Nc2cc[nH]n2)c2ccccc2n1 [Example 5, (4-(1H-pyrazol-3-ylamino)quinazolin-2-yl)(2-methoxyphenyl)methanone] | A (A ≦ 0.3)
